Assay results published in article PMC5618409, “Sequence Analysis, Kinetic Constants, and Anion Inhibition Profile of the Nacrein-Like Protein (CgiNAP2X1) from the Pacific Oyster Magallana gigas (Ex-Crassostrea gigas)” (Marine Drugs, 2017).

By UniProt entry, the sequences of proteins in these tests, tags left out. Residues count along the entry.
UniProt A0A8W8INI3, 23-318 limits assumed: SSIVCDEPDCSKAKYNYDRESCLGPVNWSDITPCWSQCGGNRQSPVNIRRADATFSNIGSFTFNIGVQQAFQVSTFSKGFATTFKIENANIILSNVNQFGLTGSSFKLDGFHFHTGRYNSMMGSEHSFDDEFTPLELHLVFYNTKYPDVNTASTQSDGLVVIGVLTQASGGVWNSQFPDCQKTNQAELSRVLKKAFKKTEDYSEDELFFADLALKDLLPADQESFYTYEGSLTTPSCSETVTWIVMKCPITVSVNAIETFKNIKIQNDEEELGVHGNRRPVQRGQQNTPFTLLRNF

Biological target: CgiNAP2X1 (Magallana gigas, UniProt A0A8W8INI3)
Assay: stopped-flow CO2 hydration assay
Assay type: biochemical

Ki: 0.495 µM
Compound: CC(=O)Nc1nnc(S(N)(=O)=O)s1 [AAZ, 5-acetamido-1,3,4-thiadiazole-2-sulfonamide]
